Experimental data as given in article PMC8674125, “Analysis of Il36a induction by C/EBPβ via a half-CRE•C/EBP element in murine macrophages in dependence of its CpG methylation level”.

Amino acid sequences for entries named in this document (tags omitted). A change or cut given only in a name is not applied to a line headed by its entry.
UniProt P28033: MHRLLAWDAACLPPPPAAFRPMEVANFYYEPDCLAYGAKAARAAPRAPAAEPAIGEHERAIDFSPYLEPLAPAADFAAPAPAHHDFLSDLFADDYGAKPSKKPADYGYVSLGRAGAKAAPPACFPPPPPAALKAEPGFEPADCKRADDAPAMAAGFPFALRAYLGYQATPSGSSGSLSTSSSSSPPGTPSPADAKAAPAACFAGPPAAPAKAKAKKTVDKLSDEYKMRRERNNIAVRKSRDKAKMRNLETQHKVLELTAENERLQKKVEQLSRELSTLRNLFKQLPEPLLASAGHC
UniProt Q00322, whole entry, stated change not applied: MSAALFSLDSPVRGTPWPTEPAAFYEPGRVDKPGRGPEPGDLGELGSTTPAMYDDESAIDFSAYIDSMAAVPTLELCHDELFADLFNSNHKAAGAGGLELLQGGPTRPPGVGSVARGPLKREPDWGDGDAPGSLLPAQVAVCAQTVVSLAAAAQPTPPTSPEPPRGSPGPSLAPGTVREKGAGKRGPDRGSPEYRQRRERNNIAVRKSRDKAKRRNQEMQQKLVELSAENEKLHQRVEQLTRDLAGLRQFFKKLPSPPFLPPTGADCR

Assays:
Test in all cases: EMSA supershift
[1] = molecular target: C/EBPβ (mouse (RAW264.7)) (UniProt P28033); settings: RAW264.7 nuclear extract, LPS 4 h, protein in an extract, label: 32P-dCTP by Klenow fill-in
[2] = molecular target: C/EBPδ (mouse (primary BMDM)) (UniProt Q00322); settings: BMDM nuclear extract, LPS 4 h, minor extent, protein in an extract, label: 32P-dCTP by Klenow fill-in
[3] = molecular target: C/EBPβ (mouse (primary BMDM)) (UniProt P28033); settings: BMDM nuclear extract, LPS 4 h, protein in an extract, label: 32P-dCTP by Klenow fill-in
[4] = molecular target: C/EBPδ (mouse (RAW264.7)) (UniProt Q00322); settings: RAW264.7 nuclear extract, LPS 4 h, protein in an extract, label: 32P-dCTP by Klenow fill-in
[5] = 5-methyl-C (mC) at position 18 of strand 1 and position 14 of strand 2

Measured: binding result

TCAGGTACTTCATCTTACGTCACCTAGT / TCAGACTAGGTGACGTAAGATGAAGTAC [half-CRE•C/EBP_Il36a EMSA probe, unmethylated]
binds: [1] | [2] | [3] | [4]; present to a certain extent

TCAGGTACTTCATCTTACGTCACCTAGT / TCAGACTAGGTGACGTAAGATGAAGTAC [half-CRE•C/EBP_Il36a EMSA probe, methylated]
binds: [1]; [5] | [2]; [5] | [3]; [5] | [4]; [5]

Construct, isoform or probe ends are uncertain for at least one entry. At least one result comes from cells or an extract, where the contact may be indirect.
